The target in the assay is β1-AR-GFP10 (UniProt P08588). Description: FRET or BRET; BRET2 in living HEK293T cells between Gα-Rluc8 and β1-AR-GFP10 or β2-AR-GFP10 with untagged Gγ2 and Gβ3; several Gαi1-Rluc8 expression levels; with or without 10 µM ISO, NE or EPI for 1 min.

Sequences of proteins named here, by UniProt entry; tags and fusion partners are left off.
UniProt P08588: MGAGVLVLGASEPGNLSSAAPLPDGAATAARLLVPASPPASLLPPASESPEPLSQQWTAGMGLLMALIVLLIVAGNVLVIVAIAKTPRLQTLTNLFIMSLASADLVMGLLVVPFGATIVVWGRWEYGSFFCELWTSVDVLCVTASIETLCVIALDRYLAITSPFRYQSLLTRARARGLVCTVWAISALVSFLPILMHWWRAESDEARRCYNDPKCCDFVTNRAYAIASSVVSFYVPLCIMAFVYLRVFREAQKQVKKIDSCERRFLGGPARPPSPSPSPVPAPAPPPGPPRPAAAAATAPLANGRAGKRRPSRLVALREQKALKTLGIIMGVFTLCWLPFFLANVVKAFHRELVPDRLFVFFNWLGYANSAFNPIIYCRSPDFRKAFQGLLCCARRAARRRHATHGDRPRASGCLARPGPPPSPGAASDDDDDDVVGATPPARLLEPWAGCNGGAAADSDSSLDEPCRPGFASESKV
UniProt P63096: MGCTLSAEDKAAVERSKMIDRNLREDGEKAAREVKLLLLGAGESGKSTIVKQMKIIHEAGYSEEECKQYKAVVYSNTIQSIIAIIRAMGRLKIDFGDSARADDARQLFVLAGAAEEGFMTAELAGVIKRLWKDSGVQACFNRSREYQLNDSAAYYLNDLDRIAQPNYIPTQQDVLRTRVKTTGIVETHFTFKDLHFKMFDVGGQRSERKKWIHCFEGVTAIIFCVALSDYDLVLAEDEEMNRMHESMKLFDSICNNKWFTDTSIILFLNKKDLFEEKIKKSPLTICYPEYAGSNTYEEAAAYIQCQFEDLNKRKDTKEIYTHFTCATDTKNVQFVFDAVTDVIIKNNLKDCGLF

Data on one substance can be found in publication PMC5554226.

Results are given in words; binding and its absence hold for the method and conditions named. Binding seen in cells or lysates may run through a third protein. Some binding calls cover weakened binding; strength is not graded here.

Regarding Gαi1-Rluc8 (from UniProt P63096 1-354), the binding entry is given as “binds”.
